Data published in PubChem BioAssay AID493014 (National Center for Advancing Translational Sciences (NCATS), 2011).
The list shows a part of the results. These are further read-outs of the screen, such as a control signal, another cell line or another target. No call is given for them. Compounds called inactive in the main read-out are mostly missing here. Potencies come from curve fits of mixed quality, noted in brackets.

Experiment: qHTS Assay to Find Inhibitors of Chronic Active B-Cell Receptor Signaling
Conditions: ABC-DLBCL IkBa-CBG/CBR reporter, luminescence ratio (green luciferase fused to IkBa over red control in TMD8 lymphoma cells), 4 h
How it was run: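 Compounds up to 46 uM were incubated four hours with TMD8 cells whose green CBG68 luciferase is fused to IkappaBalpha; red CBR luminescence normalised the signal, and concentration-effect curves were fitted to fusion, red and ratio data.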

[1] = measured here: CBR red luminescence, cell number
[2] = measured here: IkBa-CBG green luminescence

With `C/C(=N\NC(=O)c1ccccc1)c1ccc(N2CCCCC2)cc1` the AC50 [1] was 4.61 µM [falling, single point].
For `COc1ccc(CCNC(=O)CSc2nc3ccccc3o2)cc1OC`, the AC50 [1] was 16.4 µM [rising, single point].
With `COc1cc(C)c(C)cc1S(=O)(=O)N1CCCc2ccccc21` the AC50 [1] was 3.55 µM [rising, full curve, poor fit].
In the case of `COc1ccc(NC(=O)c2oc3ccc(S(=O)(=O)N4CCOCC4)cc3c2C)c(OC)c1`, the AC50 [1] is reported as 0.447 µM [falling, full curve, poor fit].
With `Cc1ccc(-c2csc(NC(=O)C3CC(=O)N(Cc4ccco4)C3)n2)cc1` (configuration not stated) the AC50 [1] was 8.91 µM [falling, partial curve].
In the case of `C/C(=N\NC(=O)Cc1csc(N2CCOCC2)n1)c1ccc(Cl)c(Cl)c1`, the AC50 [1] is reported as 3.98 µM [falling, partial curve, poor fit].
For `Cc1ccc(-n2[nH]c(C)c(/C=N/n3c(C)nc4ccccc4c3=O)c2=O)cc1`, the AC50 [1] was 14.1 µM [falling, partial curve].
With `CCC(=O)N1c2ccccc2NC2=C(C(=O)CCC2)C1c1ccc(N(C)C)cc1` (configuration not stated) the AC50 [1] was 12.6 µM [rising, single point].
For `Cc1ccc(S(=O)(=O)N2CCN(C(=O)Cc3sc(C)nc3-c3ccc(F)cc3)CC2)c(C)c1`, the AC50 [1] was 8.2 µM [falling, partial curve, poor fit].
For `Cc1nc2ccc(NC(=O)c3ccc([N+](=O)[O-])cc3)cc2[nH]1`, the AC50 [1] was 1 µM [rising, full curve, poor fit].
With `COc1ccccc1N1CCN(C(=O)CC(NC(=O)c2ccccc2Cl)c2ccccc2)CC1` (configuration not stated) the AC50 [1] was 1.46 µM [rising, full curve, poor fit].
In the case of `O=C1CSc2ccc(C(=O)Nc3cccc(S(=O)(=O)Nc4ccc(Br)cc4)c3)cc2N1`, the AC50 [1] is reported as 15.8 µM [falling, partial curve] and the AC50 [2] is reported as 28.2 µM [rising, partial curve, poor fit].
With `CC(=O)CCC(=O)c1ccc2ccccc2c1` the AC50 [1] was 2.31 µM [rising, full curve, poor fit].
In the case of `CS(=O)c1nc(-c2ccc(Br)cc2)cc(-c2ccccc2)c1C#N` (configuration not stated), the AC50 [1] is reported as 0.651 µM [falling, full curve].
In the case of `O=C(Nc1ccccc1)n1ccc(-c2ccc(-n3ccnc3)cc2)n1`, the AC50 [1] is reported as 15.8 µM [falling, partial curve, poor fit].
In the case of `O=C(Nc1ccccc1F)C(=O)Nc1cccc2ccccc12`, the AC50 [1] is reported as 1.41 µM [falling, full curve].
With `O=C(Nc1nc(-c2cccs2)cs1)c1ccc(S(=O)(=O)N2CCCC2)cc1` the AC50 [1] was 17.8 µM [falling, single point].
In the case of `CCOc1ccccc1NC(=O)CSc1nc2ccccc2nc1N1CCOCC1`, the AC50 [1] is reported as 5.62 µM [falling, partial curve, poor fit].
In the case of `COc1ccc(NC(=O)c2cc(Cl)ccc2NC(=O)c2ccco2)c(OC)c1`, the AC50 [1] is reported as 0.411 µM [falling, partial curve, poor fit].
In the case of `Cc1ccccc1Nc1ncnc2c1cnn2-c1ccccc1`, the AC50 [1] is reported as 20.6 µM [falling, partial curve, poor fit].
With `COc1ccc(CCc2nnc(N)s2)cc1OC` the AC50 [1] was 35.5 µM [rising, single point].
In the case of `Nc1nc(N)nc(-c2ccc(Cl)cc2)n1`, the AC50 [1] is reported as 32.6 µM [falling, single point].
For `COc1ccc2c(c1OC)C(=O)OC2`, the AC50 [1] was 35.5 µM [rising, single point].
With `O=[N+]([O-])c1ccc(Nc2cccc(F)c2)nc1` the AC50 [1] was 20 µM [rising, partial curve, poor fit].
With `COc1ccc(-c2cn3c(C)c(C(=O)N4CCN(c5ccc(F)cc5)CC4)sc3n2)cc1` the AC50 [1] was 23.1 µM [falling, single point].
With `CN=C(Nc1ccc(C(=O)OC)s1)c1ccc(Cl)cc1` the AC50 [1] was 35.5 µM [falling, single point].
With `CC(C)=CC(=O)OCC(=O)Nc1cc([N+](=O)[O-])ccc1F` the AC50 [1] was 0.731 µM [rising, full curve, poor fit].
With `Cc1ccc2c(CC(=O)OCc3cc(=O)n4c(n3)sc3ccccc34)coc2c1` the AC50 [1] was 35.5 µM [falling, single point].
With `COc1cc(OC)cc(C(=O)NC(=S)NCCc2ccccc2)c1` the AC50 [1] was 3.98 µM [falling, partial curve, poor fit].
With `O=C(O)CC12CC3CC(C1)CC(n1ncc(NCc4ccc(F)cc4)c(Cl)c1=O)(C3)C2` the AC50 [1] was 0.562 µM [rising, full curve, poor fit].
With `CCOC(=O)N1CC=C2C(C#N)=C(N)C(C#N)(C#N)[C@H](c3ccc(OC(C)C)c(OCC)c3)[C@H]2C1` the AC50 [1] was 18.4 µM [falling, single point].
For `S=C(NCc1ccco1)Nc1ccc(Cl)c(Cl)c1`, the AC50 [1] was 31.6 µM [falling, single point].
With `Cc1cc(O)c(C(C)C)cc1NC(=O)c1ccc(Cl)cc1` the AC50 [1] was 6.31 µM [rising, partial curve, poor fit].
With `O=C(NCCO)C(O)C(O)C(=O)NCCO` (configuration not stated) the AC50 [1] was 35.5 µM [falling, single point].
For `CNCCCOc1ccc(C)cc1Br`, the AC50 [2] was 10.3 µM [rising, partial curve, poor fit].
With `c1ccc2oc(SCc3cn4ccccc4n3)nc2c1` the AC50 [1] was 0.291 µM [falling, full curve, poor fit].
In the case of `Cc1nc2ccccc2c(=O)n1NC(=O)c1ccc(Cl)c([N+](=O)[O-])c1`, the AC50 [1] is reported as 6.31 µM [falling, partial curve].
For `CCOc1cc(/C=N/NC(=O)c2nn(C)cc2Br)ccc1OCc1ccccc1Cl`, the AC50 [1] was 20.6 µM [falling, partial curve, poor fit].
With `Cc1ccccc1NC(=O)NCCc1c[nH]c2ccccc12` the AC50 [1] was 1.78 µM [falling, full curve].
For `COc1ccc(-c2cc(C)no2)cc1S(=O)(=O)N1CCN(c2cccc(C)c2)C(C)C1` (configuration not stated), the AC50 [1] was 17.8 µM [falling, single point].
With `COc1cc(OC)cc(-c2nnc(SCc3cccnc3)o2)c1` the AC50 [1] was 3.16 µM [falling, full curve, poor fit].
